In publication PMC11408687 one finds binding data, which are given here for one substance.

By UniProt entry, the sequences of proteins in these tests, tags left out. Residues count along the entry.
UniProt Q91VN0, residues 31-1614: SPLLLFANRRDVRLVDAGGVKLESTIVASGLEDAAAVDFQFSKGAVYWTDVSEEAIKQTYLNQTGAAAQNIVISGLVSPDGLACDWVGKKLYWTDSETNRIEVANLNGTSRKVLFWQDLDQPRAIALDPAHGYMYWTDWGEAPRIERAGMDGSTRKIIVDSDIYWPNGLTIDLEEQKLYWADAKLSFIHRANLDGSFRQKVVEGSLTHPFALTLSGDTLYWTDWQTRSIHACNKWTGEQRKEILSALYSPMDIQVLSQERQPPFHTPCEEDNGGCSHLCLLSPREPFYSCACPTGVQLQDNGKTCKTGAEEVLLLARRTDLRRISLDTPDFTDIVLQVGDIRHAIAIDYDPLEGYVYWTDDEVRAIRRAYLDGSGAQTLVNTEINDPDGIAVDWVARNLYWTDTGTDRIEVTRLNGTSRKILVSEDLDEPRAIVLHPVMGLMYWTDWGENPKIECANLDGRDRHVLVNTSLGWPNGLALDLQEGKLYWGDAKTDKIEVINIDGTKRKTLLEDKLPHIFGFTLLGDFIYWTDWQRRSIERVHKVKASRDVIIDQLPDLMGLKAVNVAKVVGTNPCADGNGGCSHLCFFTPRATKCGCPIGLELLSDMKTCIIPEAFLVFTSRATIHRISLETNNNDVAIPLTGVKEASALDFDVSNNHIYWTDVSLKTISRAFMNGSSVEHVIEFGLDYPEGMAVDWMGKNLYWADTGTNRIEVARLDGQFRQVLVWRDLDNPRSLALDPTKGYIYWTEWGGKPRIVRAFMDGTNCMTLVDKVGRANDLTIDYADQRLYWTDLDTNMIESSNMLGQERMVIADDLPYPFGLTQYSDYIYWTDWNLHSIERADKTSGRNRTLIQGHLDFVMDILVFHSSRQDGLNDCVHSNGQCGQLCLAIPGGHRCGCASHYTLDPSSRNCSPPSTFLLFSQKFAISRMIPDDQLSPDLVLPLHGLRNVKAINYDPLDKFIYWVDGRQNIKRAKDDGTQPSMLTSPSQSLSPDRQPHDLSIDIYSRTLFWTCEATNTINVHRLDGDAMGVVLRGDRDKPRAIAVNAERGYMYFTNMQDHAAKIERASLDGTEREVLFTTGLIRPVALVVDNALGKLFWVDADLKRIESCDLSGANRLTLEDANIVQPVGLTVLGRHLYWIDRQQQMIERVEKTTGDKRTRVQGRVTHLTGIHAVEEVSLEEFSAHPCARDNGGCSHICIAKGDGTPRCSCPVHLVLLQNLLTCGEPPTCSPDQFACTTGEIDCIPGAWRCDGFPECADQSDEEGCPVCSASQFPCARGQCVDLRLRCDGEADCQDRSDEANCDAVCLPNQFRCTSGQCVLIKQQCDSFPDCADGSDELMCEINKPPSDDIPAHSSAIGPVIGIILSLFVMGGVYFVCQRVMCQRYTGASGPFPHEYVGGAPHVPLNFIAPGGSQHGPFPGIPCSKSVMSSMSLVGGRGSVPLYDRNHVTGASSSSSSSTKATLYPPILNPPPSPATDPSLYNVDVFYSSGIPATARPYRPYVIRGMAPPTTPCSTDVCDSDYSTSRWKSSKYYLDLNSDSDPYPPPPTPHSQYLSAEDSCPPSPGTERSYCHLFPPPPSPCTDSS

Results are given in words; binding and its absence hold for the method and conditions named. Binding seen in cells or lysates may run through a third protein. A yes stands for co-enrichment or nearness to the bait. Other partners may have been found.

The target of the assay is T1, Mesencephalic astrocyte-derived neurotrophic factor (MANF), endogenous in mouse liver (mouse (endogenous in liver tissue)) (UniProt Q9CXI5).
T1 sequence: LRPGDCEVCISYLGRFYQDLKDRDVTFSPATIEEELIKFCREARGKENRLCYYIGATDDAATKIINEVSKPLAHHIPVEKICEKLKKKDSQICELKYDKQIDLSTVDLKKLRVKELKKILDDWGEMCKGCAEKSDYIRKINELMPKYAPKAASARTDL
The experiment in a line: affinity purification with mass spectrometry; Co-IP with MANF antibody plus mass spectrometry analysis; sample not stated.

Take “Low-density lipoprotein receptor-related protein 5 (LRP5), endogenous in mouse liver (from UniProt Q91VN0 31-1614)”: the binding result was “binds”.
